This sample is rich in variants without activity.
B1: tRNA (parent)
chain: GUUCCGUUGGCGUAAUGGUAACGCGUCUCCCUCCUAAGGAGAAGACUGCGGGUUCGAGUCCCGUACGGAACG

Variants of: B1
Assay: yeast fitness relative to wild type (ratio to wild type); higher = fitter; tRNA-Arg(CCU), competitive growth, 37 C, YPD
Method in brief: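 Gene amplicons from the start population and from each of six end populations were read by 100-nucleotide paired-end sequencing. Those end populations came from pooled Saccharomyces cerevisiae strains carrying tRNA-Arg(CCU) gene variants at the native locus, competed in YPD at 37°C for 24 hours. Fitness relative to wild type was worked out from changes in genotype frequencies. Genotypes needed ≥ 100 starting reads, and estimates < 0.5 were set to 0.5.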

Variant | yeast fitness
C5G U7C G25A U64C G68A | ≤ 0.5
C5G U7G A14C U19A C33G | ≤ 0.5
C5G U8C A15G G18C G67A | ≤ 0.5
C5G U8C C11A U26C U35C G50C G52A | 0.634
C5G U8C C46G | ≤ 0.5
C5G U8G U26A | ≤ 0.5
C5G U13A G23A G38A | ≤ 0.5
C5G U13C A21C A70C | ≤ 0.5
C5G U13C A43C C55A | ≤ 0.5
C5G U13C A43G C46U G50C | ≤ 0.5
C5G U16A C33A U35C A43C G50A A57U C60G | ≤ 0.5
C5G U16C A20G C60A G63A | ≤ 0.5
C5G U26A A36C U64C | ≤ 0.5
C5G U26C C34G U53C U54C | ≤ 0.5
C5G U26G C62U | ≤ 0.5
C5G U28C | 0.737
C5G U28C C31G C62U | ≤ 0.5
C5G U28G G44C G48C | ≤ 0.5
C5G U32A G56A | 0.634
C5G U35C G44A A70C | ≤ 0.5
C5G U47A A57C U64A | ≤ 0.5
C5G U64G C66U | 0.593
C5U A14C C34A | ≤ 0.5
C5U A14C G41C A43C | ≤ 0.5

Variant | yeast fitness
C5U A14G A21U G56C G68C | ≤ 0.5
C5U A14G A65U G67A | 0.689
C5U A14G C61G | ≤ 0.5
C5U A14G G67A | 0.642
C5U A14G U16A C30U G63A A70G | ≤ 0.5
C5U A14U C30U G39C | ≤ 0.5
C5U A14U U16A C34A C66U | ≤ 0.5
C5U A14U U32A U54C C55U | ≤ 0.5
C5U A15C C22G C31A | ≤ 0.5
C5U A15G U28A C34G C46A | ≤ 0.5
C5U A15U A45U G68C | ≤ 0.5
C5U A15U G17C C66U | ≤ 0.5
C5U A15U G17C U26C | ≤ 0.5
C5U A20C C24A C60G | ≤ 0.5
C5U A20C G63A | 0.607
C5U A20U G44C C49U U64G G67A | ≤ 0.5
C5U A21C C30G U35A G38C C60G C62A | ≤ 0.5
C5U A21C G44C C46U | 0.532
C5U A21G C24A A37U | ≤ 0.5
C5U A21G C29U C31A G51C | ≤ 0.5
C5U A21G C30A U32G G67A A69C | ≤ 0.5
C5U A21U U26G C27U C29G G50C | ≤ 0.5
C5U A37U A42U A69U | ≤ 0.5
C5U A37U U54A | ≤ 0.5

Variant | yeast fitness
C5U A40C C62A A65U | ≤ 0.5
C5U A40G U47A C49U C62U A65G | ≤ 0.5
C5U A43U G44A C46A | ≤ 0.5
C5U A45U G51C | ≤ 0.5
C5U A57G G63A | 0.63
C5U A65C G68A | 0.681
C5U C11A A14C C33G | ≤ 0.5
C5U C11A A21G A70G | ≤ 0.5
C5U C11A C24G C27G A36U G38C A70C | ≤ 0.5
C5U C11A G50C C66U | ≤ 0.5
C5U C11G C49A U53C | ≤ 0.5
C5U C11U C27U C31G A43C C49G G52C U59A | ≤ 0.5
C5U C11U C33G A43C A69U | ≤ 0.5
C5U C11U G51C G52A G56C | ≤ 0.5
C5U C22A U26A C27G G48A | ≤ 0.5
C5U C22G C29A A45U A70C | ≤ 0.5
C5U C22U A37C A42U | ≤ 0.5
C5U C22U A42U | ≤ 0.5
C5U C22U C24G A42C U53G G67C | ≤ 0.5
C5U C22U C27U A42G C55A C60A A70U | 0.57
C5U C22U C30G G58C | ≤ 0.5
C5U C22U C33U A36U A43C C60U C61G A70G | ≤ 0.5
C5U C22U C34U G41A A45G | ≤ 0.5
C5U C24A A45G | ≤ 0.5

Variant | yeast fitness
C5U C24A A45G C61G C62U | ≤ 0.5
C5U C24U A69C | 0.777
C5U C24U C61G C66U A69U | ≤ 0.5
C5U C24U U28C A42C A57U | ≤ 0.5
C5U C27G C34G | ≤ 0.5
C5U C27G C62A A65C | ≤ 0.5
C5U C27U A40C A57C C61A G67A | ≤ 0.5
C5U C27U U35G A36G G58C C66U | ≤ 0.5
C5U C29A C31A U54A | ≤ 0.5
C5U C29U A42U C61U | ≤ 0.5
C5U C30U G39C | ≤ 0.5
C5U C31A C34U C61G | ≤ 0.5
C5U C31A U32C A37C G50C A69U | ≤ 0.5
C5U C33A G41C G68C | ≤ 0.5
C5U C33U A36C C61A G68C | ≤ 0.5
C5U C33U A43G G48C | ≤ 0.5
C5U C33U C62A | 0.579
C5U C33U G63C | ≤ 0.5
C5U C34A G50A U59G C62A | ≤ 0.5
C5U C34A G56A | ≤ 0.5
C5U C34G C55G | ≤ 0.5
C5U C46U U59G | 0.538
C5U C49U C55G C61A | ≤ 0.5
C5U C55A A69C | ≤ 0.5

Variant | yeast fitness
C5U C55G A69U | ≤ 0.5
C5U G6C A15C G23C C31A A36U A70C | ≤ 0.5
C5U G6C G18A A21G G25A G51C | ≤ 0.5
C5U G6C U32C | ≤ 0.5
C5U G9C A42G C49G | ≤ 0.5
C5U G9C C11G C24A U26G | ≤ 0.5
C5U G10A A20C G41A C46G G48A U54C C55U | ≤ 0.5
C5U G17C C24G G38C G51C U59G | ≤ 0.5
C5U G17C C29A C46G U53C C55G | ≤ 0.5
C5U G17C C29U A57C | ≤ 0.5
C5U G17C C30A U35C | ≤ 0.5
C5U G17C U26G G63A | ≤ 0.5
C5U G18A | 0.76
C5U G18A C30A G58A G67A G68U | ≤ 0.5
C5U G18C A40G A43C U54A | 0.72
C5U G18C U26C C30U C31G A70C | ≤ 0.5
C5U G25A G52C | ≤ 0.5
C5U G25C C34G U54C A69C | ≤ 0.5
C5U G41A A57G | ≤ 0.5
C5U G41A G56C C62G | ≤ 0.5
C5U G41C A43U G67U | ≤ 0.5
C5U G48A U54G G67C | ≤ 0.5
C5U U7A G10A | ≤ 0.5
C5U U7A U28A C60U A70G | ≤ 0.5

Variant | yeast fitness
C5U U8A G38C A42C | ≤ 0.5
C5U U8C C27U G48A C55A G63A | ≤ 0.5
C5U U8C C29U A43G G48C C55A | ≤ 0.5
C5U U13A A15G A20G C22G C46G G51A | ≤ 0.5
C5U U13A A42U C46U C62U | ≤ 0.5
C5U U13A C27G A57C G67A A69U | ≤ 0.5
C5U U13A C29G C31A C61G A69C | ≤ 0.5
C5U U13A C61U | 0.624
C5U U13G C24G C33A C62G C66U | ≤ 0.5
C5U U13G G44A G58C | ≤ 0.5
C5U U16A C34A U64C | ≤ 0.5
C5U U16G C34U A40G A43G C62A | ≤ 0.5
C5U U19A G38C C62G G68C | 0.62
C5U U19C G67C A70U | ≤ 0.5
C5U U19C U26A C55U | ≤ 0.5
C5U U26A | 0.915
C5U U26G G58A | 0.924
C5U U28A C34U G41A | ≤ 0.5
C5U U28C C46U G58A | ≤ 0.5
C5U U35A A45C | 0.602
C5U U35A A57G | ≤ 0.5
C5U U35G G52C G63A | ≤ 0.5
C5U U35G U47A G48A | ≤ 0.5
C5U U47C | 0.96

Variant | yeast fitness
C5U U54A A57U C60G C61G | ≤ 0.5
G6A A14G C22G U35G A40C A70G | ≤ 0.5
G6A A14G G18A A42C C62A | ≤ 0.5
G6A A14U G52A G63C | ≤ 0.5
G6A A15C A20U C27U | ≤ 0.5
G6A A15C U16A A21G U26A C30U C61A A69U | ≤ 0.5
G6A A15G G63C | ≤ 0.5
G6A A20C A36C U47A G48C U54G A65C | ≤ 0.5
G6A A20C C30U U32A A36U A37U C62U | ≤ 0.5
G6A A20C G56C | ≤ 0.5
G6A A20G C61A | ≤ 0.5
G6A A20U G52C G63C A69U | ≤ 0.5
G6A A20U G68C | ≤ 0.5
G6A A37C | 0.824
G6A A40C A45C A65U | ≤ 0.5
G6A A40G G68A | ≤ 0.5
G6A A43C U54C A65G | ≤ 0.5
G6A A43G G48A C55G C60U | ≤ 0.5
G6A A45C G58A | 0.519
G6A A57U C61G | ≤ 0.5
G6A A57U G68U A70G | ≤ 0.5
G6A C11A C49U A65G | ≤ 0.5
G6A C11A C61A G67C | ≤ 0.5
